# Results as given in PubChem BioAssay AID342 (DTP/NCI, 2004).
# The list does not hold the whole screen: it is rich in T/C values a quarter to a half above the control, in often repeated tests (any T/C) and in doses without a T/C. Further doses and runs are listed elsewhere. T/C: endpoint of the treated group in % of that of the vehicle group. Schedule codes are those of the source, taken here to give the interval after Q, in days (D) or hours (H), and the number of doses after X. Some schedules carry Z or #; the key to these is not given. Some T/C values carry the count of animals alive at the toxicity check (mostly the fifth day); without a count, all were alive then. Some doses were run more than once; the results are listed from low to high. Some entries give survivors of the animals treated and no T/C: the source files T/C as zero there, which appears to mark a toxic dose or a test without result, not a measured value. Survivors were counted at the toxicity check, usually on the fifth day, unless a day is given; later deaths do not show. Some molecules as drawn cover several salts, stereoisomers or complexes of the source; a dose is that of the sample tested.
# Tested on: Swiss mice, Sarcoma 180 sc, mean tumor weight T/C
# Test: NCI In Vivo Anticancer Drug Screen. Data for tumor model Sarcoma 180 (subcutaneous) in Swiss mice
# Details: T/C endpoint: mean tumor weight, higher T/C = larger tumour; for T/C: evaluated on day 8
# Method in brief: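 Transplantable tumors were established in mice, compound was given, then survival or tumor size was recorded. The treated value was divided by the vehicle-control value.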
# [1] = dose: 30.0 mg/kg/injection, schedule: Q#A X014 (ip), vehicle: methylcellulose (MC)
# [2] = dose: 4.5 mg/kg/injection, schedule: Q#A X014 (ip), vehicle: saline
# [3] = dose: 125.0 mg/kg/injection, schedule: Q01DX007 (ip), vehicle: carboxymethylcellulose (CMC)
smiles,measurement,setting,value
NNc1nncc2ccccc12,survivor count,"dose: 150.0 mg/kg/injection, schedule: Q01DX007 (ip), vehicle: carboxymethylcellulose (CMC)",0 of 7
same,survivor count,"dose: 300.0 mg/kg/injection, schedule: Q01DX007 (ip), vehicle: carboxymethylcellulose (CMC)",0 of 7
CCSc1nc(Cl)cc(Sc2nc(N)nc3nc[nH]c23)n1,T/C,"dose: 4.5 mg/kg/injection, schedule: Q01DX007 (ip), vehicle: other",125 % of control
same,survivor count,"dose: 144.0 mg/kg/injection, schedule: Q01DX007 (ip), vehicle: other",3 of 6
same,survivor count,"dose: 288.0 mg/kg/injection, schedule: Q01DX007 (ip), vehicle: other",1 of 6
same,survivor count,"dose: 575.0 mg/kg/injection, schedule: Q01DX007 (ip), vehicle: methylcellulose (MC)",3 of 6
CCCCCCCCCCCCCCCCCCNC(=S)N/N=C/c1ccc(Cl)cc1Cl,T/C,[1],"45 [5 of 6 alive], 92, 100 % of control"
same,survivor count,[1],2 of 6
same,T/C,"dose: 45.0 mg/kg/injection, schedule: Q#A X014 (ip), vehicle: methylcellulose (MC)","44 [4 of 6 alive], 45, 58 [5 of 6 alive], 80 % of control"
same,survivor count,"dose: 65.0 mg/kg/injection, schedule: Q#A X014 (ip), vehicle: methylcellulose (MC)",2 of 6
same,survivor count,"dose: 97.5 mg/kg/injection, schedule: Q#A X014 (ip), vehicle: methylcellulose (MC)",3 of 6
CN1C=c2c3c(ccc2=C2C=CC4C=C5OCOC5=CC4=C21)OCO3 (stereo not drawn),T/C,[2],"50, 59, 63 [4 of 6 alive], 81 % of control"
same,survivor count,[2],4 of 7
same,T/C,"dose: 6.5 mg/kg/injection, schedule: Q#A X014 (ip), vehicle: saline","43 [5 of 6 alive], 59, 83, 102 % of control [5 of 6 alive]"
same,survivor count,"dose: 10.0 mg/kg/injection, schedule: Q#A X014 (ip), vehicle: saline",1 of 6
same,survivor count,"dose: 40.0 mg/kg/injection, schedule: Q#A X014 (oral), vehicle: saline",4 of 7
CCN(CC)P(=S)(N1CC1)N1CC1,survivor count,"dose: 335.0 mg/kg/injection, schedule: Q01DX007 (ip), vehicle: saline",3 of 6
same,survivor count,"dose: 500.0 mg/kg/injection, schedule: Q01DX007 (ip), vehicle: saline",2 of 6
O=C(O)C(=O)O.O=C([O-])C(=O)O.O=C([O-])C(=O)O.O=C([O-])C(=O)[O-].[K+].[U],survivor count,"dose: 7.5 mg/kg/injection, schedule: Q#A X014 (ip), vehicle: saline",1 of 6
same,survivor count,"dose: 11.25 mg/kg/injection, schedule: Q#A X014 (ip), vehicle: saline",3 of 6
C#C[C@]1(O)CC[C@H]2[C@@H]3CCc4cc(O)ccc4[C@H]3CC[C@@]21C,survivor count,"dose: 281.25 mg/kg/injection, schedule: Q#A X014 (sc), vehicle: steroid suspending solution",3 of 7
O=C1Nc2ccccc2/C1=C/c1cccnc1,survivor count,"dose: 500.0 mg/kg/injection, schedule: Q01DX007 (ip), vehicle: carboxymethylcellulose (CMC)",3 of 6
COc1cccc2c1-c1ccccc1C2,T/C,[3],136 % of control
O=C(O)c1ccc(-c2ccccc2)cc1,survivor count,"dose: 400.0 mg/kg/injection, schedule: Q01DX007 (ip), vehicle: carboxymethylcellulose (CMC)",2 of 4
O=C(Nc1ccc([N+](=O)[O-])cc1)Nc1ccc([N+](=O)[O-])cc1 (tested in a mixture with another compound),survivor count,"dose: 83.5 mg/kg/injection, schedule: Q#A X014 (ip), vehicle: methylcellulose (MC)",2 of 6
same,survivor count,"dose: 125.0 mg/kg/injection, schedule: Q#A X014 (ip), vehicle: methylcellulose (MC)",3 of 6
same,survivor count,"dose: 250.0 mg/kg/injection, schedule: Q#A X014 (ip), vehicle: methylcellulose (MC)",2 of 6
NC1=CC(=O)c2ccccc2C1=O,survivor count,"dose: 12.5 mg/kg/injection, schedule: Q01DX007 (ip), vehicle: other",2 of 6
same,T/C,"dose: 15.0 mg/kg/injection, schedule: Q01DX007 (ip), vehicle: other",131 % of control
CCCCN(C)N=Nc1n[nH]nc1C(N)=O,survivor count,"dose: 162.0 mg/kg/injection, schedule: Q01DX007 (ip), vehicle: carboxymethylcellulose (CMC)",3 of 6
CCN(CC)c1ccc(/C=C/c2ccnc3ccccc23)cc1,survivor count,"dose: 15.5 mg/kg/injection, schedule: Q01DX007 (ip), vehicle: carboxymethylcellulose (CMC)",5 of 10
same,survivor count,"dose: 15.5 mg/kg/injection, schedule: Q01DX007 (ip), vehicle: other",1 of 10
same,survivor count,"dose: 49.25 mg/kg/injection, schedule: Q01DX007 (ip), vehicle: carboxymethylcellulose (CMC)",5 of 10
C=CC(CN1CC1)OC(C)=O (stereo not drawn),survivor count,"dose: 4.6 mg/kg/injection, schedule: Q01DX007 (ip), vehicle: carboxymethylcellulose (CMC)",1 of 10
same,survivor count,"dose: 9.2 mg/kg/injection, schedule: Q01DX007 (ip), vehicle: carboxymethylcellulose (CMC)",6 of 10
CCCCNc1ncnc2c1cnn2C,T/C,"dose: 2.0 mg/kg/injection, schedule: Q01DX007 (ip), vehicle: carboxymethylcellulose (CMC)",135 % of control [5 of 6 alive]
same,survivor count,"dose: 62.5 mg/kg/injection, schedule: Q01DX007 (ip), vehicle: carboxymethylcellulose (CMC)",1 of 6
same,survivor count,[3],3 of 6
COc1ccc(-c2ccc(OC)c(OC)c2OC)c(N)c1,survivor count,"dose: 875.0 mg/kg/injection, schedule: Q01DX007 (ip), vehicle: methylcellulose (MC)",2 of 6
same,survivor count,"dose: 1000.0 mg/kg/injection, schedule: Q01DX007 (ip), vehicle: methylcellulose (MC)",1 of 6
CCCOC(=O)C1(N)CCCC1,survivor count,"dose: 336.0 mg/kg/injection, schedule: Q01DX007 (ip), vehicle: saline",2 of 6
C[C@]12CC[C@H](O)C[C@H]1CC[C@@H]1[C@@H]2CC[C@]2(C)[C@@H](C3=CC(=O)OC3)CC[C@]12O,survivor count,"dose: 50.0 mg/kg/injection, schedule: Q01DX007 (ip), vehicle: carboxymethylcellulose (CMC)",3 of 6
CCCOP(=S)(N1CC1)N1CC1,survivor count,"dose: 22.5 mg/kg/injection, schedule: Q#A X014 (ip), vehicle: methylcellulose (MC)",3 of 6
same,survivor count,"dose: 22.5 mg/kg/injection, schedule: Q#A X014 (ip), vehicle: saline",1 of 6 and 3 of 6
CC(=O)Nc1cc2c(cc1Br)-c1ccc(F)cc1C2,survivor count,"dose: 750.0 mg/kg/injection, schedule: Q01DX007 (ip), vehicle: other",3 of 6
CCOC(=O)c1c(C#N)c(Cl)nc(C)c1[N+](=O)[O-],survivor count,"dose: 12.5 mg/kg/injection, schedule: Q#A X014 (ip), vehicle: carboxymethylcellulose (CMC)",1 of 6
COC(=O)[C@H]1[C@H]2C[C@@H]3c4[nH]c5cc(OC)ccc5c4CCN3C[C@H]2C[C@@H](OC(=O)c2cc(OC)c(OC)c(OC)c2)[C@@H]1OC,survivor count,"dose: 4.0 mg/kg/injection, schedule: Q01DX007 (ip), vehicle: carboxymethylcellulose (CMC)",1 of 6
same,survivor count,"dose: 5.1 mg/kg/injection, schedule: Q01DX007 (ip), vehicle: carboxymethylcellulose (CMC)",2 of 7
